In paper doi:10.1101/2020.10.08.331397:
Results are given in words; binding and its absence hold for the method and conditions named. Some entries that bind do so weakly or less than the wild type. For part of these data: Sequences can lack the tags named with a protein. Values belong to the binder of their own block, whether it stands above or below them.

Sequences of proteins named here, by UniProt entry; tags and fusion partners are left off. Residues count along the entry.
UniProt P22681, 25-357: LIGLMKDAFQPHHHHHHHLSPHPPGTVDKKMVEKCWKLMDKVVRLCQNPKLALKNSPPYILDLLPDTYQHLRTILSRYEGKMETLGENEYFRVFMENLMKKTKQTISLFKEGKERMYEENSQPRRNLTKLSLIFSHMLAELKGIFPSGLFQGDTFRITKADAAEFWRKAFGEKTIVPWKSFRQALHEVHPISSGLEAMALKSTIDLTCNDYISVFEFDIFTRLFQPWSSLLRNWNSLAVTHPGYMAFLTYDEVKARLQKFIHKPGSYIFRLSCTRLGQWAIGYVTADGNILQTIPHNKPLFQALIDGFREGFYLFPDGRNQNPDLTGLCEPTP
UniProt P22681, 47-357: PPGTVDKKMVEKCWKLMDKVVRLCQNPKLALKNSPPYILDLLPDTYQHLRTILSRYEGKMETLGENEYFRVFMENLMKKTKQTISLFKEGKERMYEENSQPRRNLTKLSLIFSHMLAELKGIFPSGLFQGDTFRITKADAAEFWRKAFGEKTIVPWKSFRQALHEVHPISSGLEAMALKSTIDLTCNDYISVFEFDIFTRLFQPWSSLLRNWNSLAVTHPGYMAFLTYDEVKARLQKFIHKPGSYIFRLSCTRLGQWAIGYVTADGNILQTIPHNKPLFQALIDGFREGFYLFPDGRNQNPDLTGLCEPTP

Key:
[1] = target: CBL tyrosine kinase binding domain (TKBD), residues 25-357 (UniProt P22681); test: ITC
[2] = target: CBL (47-357), co-expressed from MCS2 of pETDuet-1 (UniProt P22681); test: SEC

- binding [1]: binds
Binder: VIEDNEYTAR (phosphotyrosine at position 7 of the peptide (pY)) [phosphorylated kinase activation loop peptide of Lyn kinase (VIEDNEpYTAR)]

- binding [1]: binds
Binder: TLNSDGYTPEPA (phosphotyrosine at position 7 of the peptide (pY)) [phosphorylated Zap70 kinase peptide (TLNSDGpYTPEPA)]

- binding [2]: binds
B1: human SLAP2 residues 29-261, Trx-His tag removed by thrombin (domain or fragment, UniProt Q9H6Q3 29-261)
chain: EAERSKATAVALGSFPAGGPAELSLRLGEPLTIVSEDGDWWTVLSEVSGREYNIPSVHVAKVSHGWLYEGLSREKAEELLLLPGNPGGAFLIRESQTRRGSYSLSVRLSRPASWDRIRHYRIHCLDNGWLYISPRLTFPSLQALVDHYSELADDICCLLKEPCVLQRAGPLPGKDIPLPVTVQRTPLNWKELDSSLLFSEAATGEESLLSEGLRESLSFYISLNDEAVSLDDA
